From PubChem BioAssay AID602254 (Broad Institute, 2012)
Screen size: about 1,000 compounds; fewer than 10 were called active.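 Rule for the calls: active = fitted half-maximal concentration no higher than twice the top valid tested dose, with signal falling; inconclusive = flat curve with 30 to 70% inhibition, or poor fit; inactive = the rest.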 The list shows a part of the results. Results with a measured potency or affinity are listed apart.

Biological target: Golgi-associated PDZ and coiled-coil motif-containing protein (Homo sapiens) (UniProt Q9HD26)
Test: CAL PDZ domain peptide-binding inhibitors, dose response, biochemical, fluorescence polarization, untagged CAL PDZ, cherry-pick, set 2 (AID 602254);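 note: 0% = DMSO neutral control and -100% = unlabeled peptide PRC23 positive control; more negative means stronger blocking of peptide binding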
Details: Purified CAL PDZ, TMR peptide fluorescence polarization; at 60 µM (top of the series)

Activity change, negative = inhibition, inactive:
COC(=O)Nc1ccc(S(=O)(=O)N2CCCCC2C(=O)O)cc1 (stereo not drawn) -2.39%, CS(=O)(=O)c1ccc(C(=O)NC2CCCc3ccccc32)cc1 (stereo not drawn) 4.04%, COc1ccc(C(=O)NCC(=O)NCc2ccncc2)cc1 0.998%, Cc1ccc(NC(=O)c2ccc(S(=O)(=O)N3CCC(C)CC3)cc2)nc1 3.95%, CC(C)CNC(=O)CC1Nc2ccccc2NC1=O (stereo not drawn) -0.28%, O=C(NC(=S)Nn1cnnc1)c1ccccc1Br -0.636%, O=C(NCCCc1ccncc1)C1CCC(=O)N(Cc2ccc(Cl)cc2)C1 (stereo not drawn) -2.31%, CCn1nc(C)c(CNC(=O)c2ccc(OC3CCN(Cc4ccccn4)CC3)cc2)c1C -4.32%, C=CCn1c(O)c(/C=C2\C=NN=C2c2ccccc2)sc1=S -4.91%, COc1ccc(OC)c(-c2csc(NC(=O)c3ccc4c(c3)OCO4)n2)c1 0.356%, Cc1ccc(S(=O)(=O)c2nc(NN(C)C)sc2Cl)cc1 -1.6%, CC(=O)Nc1sc2c(c1C(N)=O)CCC2 2.98%, FC(F)(F)c1ccccc1NC(=S)N1CCCC1 3.04%, OCC1(CCOc2ccccc2)CCN(Cc2cccn2-c2ncccn2)CC1 -0.78%, CC(C)CC1NC(=O)N(CC(=O)N(C)C2CCCCC2)C1=O (stereo not drawn) -0.87%, CC(=O)c1cnc2nc(SCc3ccc(Cl)cc3)nn2c1C 10.5%, Brc1ccc(-c2noc(C3CCCCC3)n2)cc1 -12%, COc1ccc(N/N=C(\C#N)C(=N)N2CCCCC2)cc1 1.07%, COC(=O)c1sc(-c2ccc(Cl)cc2)cc1N -1.9%, O=C(NCc1ccccn1)NC12CC3CC(CC(C3)C1)C2 -5.26%, COc1ccc(CNC(=O)CCN2C(=S)NC(C)(C)CC2C)cc1 (stereo not drawn) -3.51%, COC(=O)c1ccc(Cn2nc(C)cc2C)cc1 2.75%, CCCCNC(=S)N1CCN(c2ccccc2Cl)CC1 -1.76%, Cc1ccccc1Nc1c(-c2ccccn2)nc2ccccn12 -5.43%, O=C(Nc1ccc2cn[nH]c2c1)c1ccccc1F -2.66%, CCCN(CC(=O)Nc1ccccc1C)C(=O)c1sc2ccccc2c1Cl 2.41%, Cc1c(CCC(=O)O)c(=O)oc2c(C)c(OCc3cc4c(cc3Cl)OCO4)ccc12 1.92%, CCOc1ccc(NC(=O)CN(C)S(=O)(=O)c2cccs2)cc1 -3.37%
